Reference: US20100291023A1
No constants are given. Whether binding was seen depends on the method and setting. Some results given as binding are weak or reduced against the parent protein; the word gives no strength.

T1: Bet v 1 (birch) (UniProt P15494)
T1 sequence (125I label (chloramine-T method) on the radiolabelled form, looked up): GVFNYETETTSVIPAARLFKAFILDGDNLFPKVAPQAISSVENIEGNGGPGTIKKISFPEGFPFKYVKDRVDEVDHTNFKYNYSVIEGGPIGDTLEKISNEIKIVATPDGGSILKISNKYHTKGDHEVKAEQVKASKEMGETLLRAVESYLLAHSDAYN


Tests used:
[1] = biological target: T1, Bet v 1 (birch); assay: radio immuno assay: 125I-labelled Bet v 1 bound to antibody on Protein G Sepharose
[2] = biological target: T1, Bet v 1 (birch); assay: crosslinking radio immuno assay: Bet v 1 Sepharose, antibody, 125I-labelled Bet v 1
[3] = biological target: T1, Bet v 1 (birch); assay: radio immuno assay (Protein G Sepharose, 125I-labelled Bet v 1) on gel filtration fractions

Row | binding [1] | binding [2] | binding [3] | Binder
1 | binds | binds |  | Betv1-IgG1 (antibody, not shown: a dimerising Fc or GST) heavy: EVQLQQSGAELVKPGASVKLSCTASGFNIKDTYIHWVKQRPEQGLEWVGRIDPATGNTRYDPKFQGKATITADTSSNTAYLQLSSLTSEDTAVYYCASFRPGYALDYWGQGTSVTVSS light: DIVMTQSHKFMSTSVGDRVSFTCKASQDVFTAVAWYQQKPGQSPKLLIYWASTRRTGVPDRFTGSGSGTDYTLTISSVQAEDLALYYCQQHFSTPPTFGGGTKLEIKRTVAAPSVFIFPPSDEQLKSGTASVVCLLNNFYPREAKVQWKVDNALQSGNSQESVTEQDSKDSTYSLSSTLTLSKADYEKHKVYACEVTHQGLSSPVTKSFNRGEC
2 | binds | binds | binds | Betv1-HG (antibody, V domains shown) VH: EVQLQQSGAELVKPGASVKLSCTASGFNIKDTYIHWVKQRPEQGLEWVGRIDPATGNTRYDPKFQGKATITADTSSNTAYLQLSSLTSEDTAVYYCASFRPGYALDYWGQGTSVTVSS VL: DIVMTQSHKFMSTSVGDRVSFTCKASQDVFTAVAWYQQKPGQSPKLLIYWASTRRTGVPDRFTGSGSGTDYTLTISSVQAEDLALYYCQQHFSTPPTFGGGTKLEIKR
